Measured values taken from the supplement of paper PMC6690932.
Where a name gives a salt, the structure may show the parent alone. ± gives the standard deviation of the averaged measurements. The list shows a part of the results. Most values come without repeats; read them as rough.

The molecules below were run on HeLa (assay: lysosomal-METRIQ red/green fluorescence ratio relative to DMSO (ratio to DMSO); higher = higher lysosomal activity / lysosomal biogenesis). Conditions: 10 µM; 12 h.

Compound | lysosomal-METRIQ red/green fluorescence ratio
CN(Cc1cnc2nc(N)nc(N)c2n1)c1ccc(C(=O)N[C@@H](CCC(=O)O)C(=O)O)cc1 [Methotrexate] | 1.29
COc1cc2ncnc(Nc3ccc(NC(=O)c4ccccc4)cc3)c2cc1OC [Aurora kinase inhibitor II] | 1.05
CCCOc1ccccc1-c1nc2[nH]nnc2c(=O)[nH]1 [Zaprinast] | 1.07
CC(Cc1ccc(O)c(O)c1)C(C)Cc1ccc(O)c(O)c1 (stereo not given) [Nordihydroguaiaretic acid (NDGA)] | 1.04
CS(=O)(=O)Nc1ccc([N+](=O)[O-])cc1OC1CCCCC1 | 1.05
C[C@@H]1C[C@H]2[C@@H]3CCC4=CC(=O)C=C[C@]4(C)[C@@]3(F)[C@@H](O)C[C@]2(C)[C@@]1(O)C(=O)CO [Dexamethasone] | 1.1
CC(=O)O[C@H]1C(=O)[C@@]2(C)[C@H]([C@H](OC(=O)c3ccccc3)[C@]3(O)C[C@H](OC(=O)[C@H](O)[C@@H](NC(=O)c4ccccc4)c4ccccc4)C(C)=C1C3(C)C)[C@]1(OC(C)=O)CO[C@@H]1C[C@@H]2O [Paclitaxel] | 1.19
CCOC(=O)C1=C(N)Oc2ccc(Br)cc2C1C(C#N)C(=O)OCC (stereo not given) | 0.96
CN(C)S(=O)(=O)c1ccc2c(c1)/C(=C/c1cc3c([nH]1)CCCC3)C(=O)N2 | 2.5
COc1cccc2c1C(=O)c1c(O)c3c(c(O)c1C2=O)C[C@@](O)(C(C)=O)C[C@@H]3O[C@H]1C[C@H](N)[C@H](O)[C@H](C)O1 [Daunorubicin, HCl] | 0.613
COc1cccc2c1C(=O)c1c(O)c3c(c(O)c1C2=O)C[C@@](O)(C(=O)CO)C[C@@H]3O[C@H]1C[C@H](N)[C@H](O)[C@H](C)O1 [Doxorubicin, HCl] | 1.03
CC(C)C[C@@H](C=O)NC(=O)[C@H](CC(C)C)NC(=O)[C@H](CC(C)C)NC(=O)OCc1ccccc1 | 0.467
CCn1cc(C(=O)O)c(=O)c2ccc(C)nc21 [Nalidixic acid] | 1
O=C(NCc1ccccc1)c1csc(Nc2ccncn2)n1 [Thiazovivin] | 0.955
CC(C)n1nc(-c2cc3cc(O)ccc3[nH]2)c2c(N)ncnc21 [Torkinib] | 0.864
N#CC[C@H](C1CCCC1)n1cc(-c2ncnc3[nH]ccc23)cn1 [Ruxolitinib] | 1.95
COc1cc([C@@H]2c3cc4c(cc3[C@@H](O[C@@H]3O[C@@H]5CO[C@@H](C)O[C@H]5[C@H](O)[C@H]3O)[C@H]3COC(=O)[C@H]23)OCO4)cc(OC)c1O [Etoposide (VP-16)] | 1.16
OC[C@H]1NC[C@H](O)[C@@H](O)[C@@H]1O [Deoxynojirimycin] | 1

9 structures already listed, sorted by number of heavy atoms, descending:
Compound | lysosomal-METRIQ red/green fluorescence ratio
CC(=O)O[C@H]1C(=O)[C@@]2(C)[C@H]([C@H](OC(=O)c3ccccc3)[C@]3(O)C[C@H](OC(=O)[C@H](O)[C@@H](NC(=O)c4ccccc4)c4ccccc4)C(C)=C1C3(C)C)[C@]1(OC(C)=O)CO[C@@H]1C[C@@H]2O [Paclitaxel] | 1.19
COc1cccc2c1C(=O)c1c(O)c3c(c(O)c1C2=O)C[C@@](O)(C(=O)CO)C[C@@H]3O[C@H]1C[C@H](N)[C@H](O)[C@H](C)O1 [Doxorubicin, HCl] | 1.03
CC(C)C[C@@H](C=O)NC(=O)[C@H](CC(C)C)NC(=O)[C@H](CC(C)C)NC(=O)OCc1ccccc1 | 0.467
CN(Cc1cnc2nc(N)nc(N)c2n1)c1ccc(C(=O)N[C@@H](CCC(=O)O)C(=O)O)cc1 [Methotrexate] | 1.29
COc1cc2ncnc(Nc3ccc(NC(=O)c4ccccc4)cc3)c2cc1OC [Aurora kinase inhibitor II] | 1.05
CC(C)n1nc(-c2cc3cc(O)ccc3[nH]2)c2c(N)ncnc21 [Torkinib] | 0.864
CC(Cc1ccc(O)c(O)c1)C(C)Cc1ccc(O)c(O)c1 (stereo not given) [Nordihydroguaiaretic acid (NDGA)] | 1.04
CS(=O)(=O)Nc1ccc([N+](=O)[O-])cc1OC1CCCCC1 | 1.05
OC[C@H]1NC[C@H](O)[C@@H](O)[C@@H]1O [Deoxynojirimycin] | 1

Next part.

Compound | lysosomal-METRIQ red/green fluorescence ratio
Cc1cc(N)c2ccccc2[n+]1CCCCCCCCCC[n+]1c(C)cc(N)c2ccccc21 [Dequalinium] | 0.88
c1cc(CN2CCCNCCNCCCNCC2)ccc1CN1CCCNCCNCCCNCC1 [AMD3100 octahydrochloride] | 1.08
NCC(=O)Nc1ccc(-n2nc(C(F)(F)F)cc2-c2ccc3c(ccc4ccccc43)c2)cc1 | 1
Cc1ccc(NC(=O)c2ccc(CN3CCN(C)CC3)cc2)cc1Nc1nccc(-c2cccnc2)n1 [imatinib mesylate] | 0.727
CN(C)c1ccccc1CN1CCCN(Cc2ccccc2N(C)C)C1c1ccncc1 | 1
O=[N+]([O-])c1ccc(-c2nc(-c3ccc(F)cc3)c(-c3ccncc3)[nH]2)cc1 | 1.2
C/C=C/C/C=C/CCC(=O)[C@H]1O[C@H]1C(N)=O [Cerulenin] | 1.17
C[C@@H]1C[C@H]2O[C@@H]2/C=C\C=C\C(=O)Cc2c(Cl)c(O)cc(O)c2C(=O)O1 [radicicol] | 0.812
CNC(=O)c1ccccc1Sc1ccc2c(/C=C/c3ccccn3)n[nH]c2c1 [Axitinib] | 0.955
CNCc1ccc(-c2[nH]c3cc(F)cc4c3c2CCNC4=O)cc1 | 1
Nc1nc(Nc2ccc(S(N)(=O)=O)cc2)nn1C(=S)Nc1c(F)cccc1F [Cdk1/2 inhibitor III] | 1.68
NC(=O)c1ccc(I)c([N+](=O)[O-])c1 [BSI-201 (Iniparib)] | 1
Nc1nc2c(nc(Sc3ccc(Cl)cc3)n2C2O[C@@H]3CO[P+](O)(S)OC3[C@@H]2O)c(=O)[nH]1 (stereo not given in full) | 0.947 ± 0.013
CNC(=O)c1ccc(N2C(=S)N(c3ccc(C#N)c(C(F)(F)F)c3)C(=O)C2(C)C)cc1F | 0.864
CCNCCCNCCCCNCCCNCC [N1,N12-Diethylspermine (BESpm)] | 1.04
CCOC(=O)C(C)(C)Oc1ccc(Cl)cc1 [Clofibrate] | 1.04
CC(C)(C)NC(=O)[C@H]1CC[C@H]2[C@@H]3CC[C@H]4NC(=O)C=C[C@]4(C)[C@H]3CC[C@]12C [Finasteride] | 1.04
